Data published in patent US10562935B2, “Stapled peptides and uses thereof” (London Health Sciences Centre Research Inc., priority 2015, dated 2020).
Some entries share one result that the patent states for a list of compounds.

test system: IMR90 human fetal lung fibroblasts; assay: Fibrosis assay: active TGF-β levels in TGF-β treated fibroblasts (ELISA); assay type: cell-based; conditions: 10 ng/mL peptide; 48 hours; compared to +TGFβ1 control
Description: Compounds 132, 133, 135, 150, 152, 157-161, 265-269, 275, 277, and 278 were evaluated for their ability to inhibit fibrosis. IMR90 human fetal lung fibroblasts were obtained from ATCC and maintained in DMEM supplemented with 10% fetal bovine serum. In order to examine the effect of peptides on myofibroblast differentiation, 80% confluent cultures were serum starved overnight prior to addition of TGF-β (2 ng/mL, R&D Systems). Cells were treated with TGF-β for 24 hours prior to addition of peptides (10 ng/mL). 48 hours after addition of peptides, culture supernatants were collected and levels of active TGF-β measured using commercially available TGF-β ELISA (Quantikine, R&D Systems).
Values are the Mean and SDM n=3 replicates. *p<0.05, **p<0.01, ***p<0.001 when compared to the +TGFβ1 control. In FIG. 47, where bars are labeled with two compound numbers (“133/150” and “135/152”) this means that the data were pooled for the indicated compounds, i.e., for the non-acetylated and acetylated versions of the indicated peptides.

Row | Substance | inhibition of fibrosis (active TGF-β, in words)
1 | Ac-(cyclo-4,8)-VSK[ERSQK]VKRKQN-NH2 [Compound 150] | significantly inhibit fibrosis
2 | H-(cyclo-4,8)-VSK[ERSQK]VKRKQN-NH2 [Compound 133] | significantly inhibit fibrosis
3 | Ac-(cyclo-8,12)-NLKQKIK[EVVKK]KDE-NH2 [Compound 161] | significantly inhibit fibrosis
4 | Ac-(cyclo-6,10)-VSKLR[EQLVK]RKQN-NH2 [Compound 152] | significantly inhibit fibrosis
5 | Ac-(cyclo-5,9)-NLKQ[EIKHK]VKLKDE-NH2 [Compound 158] | significantly inhibit fibrosis
6 | Ac-(cyclo-28-32)-NLKQKIKHVVKLKDENSQLKSEVSKLR[EQLVK]RKQN-NH2 [Compound 277] | significantly inhibit fibrosis
7 | Ac-(cyclo-4,8)-NLK[EKIKK]VVKLKDE-NH2 [Compound 157] | significantly inhibit fibrosis
8 | H-(cyclo-6,10)-VSKLR[EQLVK]RKQN-NH2 [Compound 135] | significantly inhibit fibrosis
9 | Ac-(cyclo-6,10)-NLKQK[EKHVK]KLKDE-NH2 [Compound 159] | significantly inhibit fibrosis
